Source: PubChem BioAssay AID504804 (Drosophila RNAi Screening Center, 2011)
The screen tested about 19,000 reagents; this is a random part of those that have a named target and a result. Of all reagents, 47 (0.25%) were called active. 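Signals are raw, not normalised; exact z-scores behind calls not deposited; actives needed confirmation, so some wells reaching 2 SD are inactive.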 A number with no mark means an inactive call. A plus sign joins genes that one reagent is predicted to hit.

- Screen: 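Fly genes whose loss lessens doxorubicin-driven cell death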 (primary screen)
- Cell system: Drosophila Kc cells
- Reagents: long dsRNA against Drosophila genes, 0.5 µg dsRNA per well
- Duration: 96 h (48 h knock-down, then 48 h drug)
- Conditions: doxorubicin 5 µg/ml for 48 h, added 48 h after dsRNA
- Detection: 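Viability measured as cellular ATP by luminescence after 48 h knock-down then 48 h doxorubicin at 5 µg/ml; unnormalised plate counts for each replicate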
- Direction: raw ATP luminescence: higher = more viable cells, protection from doxorubicin
- Rule for the call: 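Active when both duplicate wells lie at least 2 SD above the plate mean and protection is confirmed by rescreening and independent dsRNAs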

| gene | amplicon | SD above plate mean | raw ATP luminescence, replicate 1 | raw ATP luminescence, replicate 2 |
| --- | --- | --- | --- | --- |
| Cul6 (GeneID 39474) | DRSC09830 | – | 44860 | 43873 |
| CG2736 (GeneID 37998) | DRSC04314 | – | 65387 | 83927 |
| CG7781 (GeneID 34143) | DRSC03068 | – | 36810 | 72947 |
| CG13917 (GeneID 38186) | DRSC08386 | – | 53413 | 58687 |
| CG7365 (GeneID 40200) | DRSC10824 | – | 19920 | 16710 |
| GCS2alpha (GeneID 49953) | DRSC21036 | – | 3.08e5 | 2.47e5 |
| Cul1 (GeneID 35742) | DRSC07645 | – | 65990 | 64493 |
| CG12395 (GeneID 32571) | DRSC19453 | – | 3.79e5 | 3.09e5 |
| CG32032 (GeneID 192535) | DRSC08961 | – | 1.38e5 | 1.53e5 |
| CG17770 + Acam | DRSC14110 | – | 63950 | 61660 |
| CG17770 + Acam | DRSC15264 | – | 69440 | 59930 |
| Alp5 (GeneID 42482) | DRSC14269 | – | 44097 | 36587 |
| goe (GeneID 32660) | DRSC19345 | – | 3.16e5 | 3.21e5 |
| BTBD9 (GeneID 32000) | DRSC18148 | – | 3.86e5 | 3.33e5 |
| CG10918 (GeneID 33123) | DRSC20472 | – | 2.03e5 | 2.02e5 |
| Cpr92F (GeneID 42450) | DRSC15819 | – | 57170 | 73810 |
| PICK1 (GeneID 34677) | DRSC02936 | – | 79347 | 94240 |
| Polr2C (GeneID 34796) | DRSC03415 | – | 61507 | 54053 |
| Rbbp5 + CG6434 (retired record) | DRSC10635 | – | 60277 | 62880 |
| CG13465 (GeneID 50282) | DRSC10011 | – | 51390 | 41447 |
| Vha14-2 (GeneID 40748) | DRSC12145 | – | 68090 | 74927 |
| SRPK (GeneID 36706) | DRSC07090 | – | 70880 | 42570 |
| CG13590 (GeneID 37907) | DRSC04226 | – | 65373 | 55250 |
| ppk12 (GeneID 37566) | DRSC04086 | – | 41683 | 56723 |
| CG8399 (GeneID 36768) | DRSC07163 | – | 46010 | 66817 |
| ND-ASHI (GeneID 31604) | DRSC18291 | – | 31160 | 49780 |
| Sgs8 (GeneID 39285) | DRSC11282 | – | 74547 | 63910 |
| CG7600 (GeneID 39267) | DRSC09681 | – | 33813 | 39963 |
| mago (GeneID 37402) | DRSC04703 | – | 32167 | 40740 |
| GstD2 (GeneID 48335) | DRSC16684 | – | 65390 | 55677 |
| CG31189 (GeneID 42487) | DRSC16198 | – | 70130 | 47250 |
| CG18081 (GeneID 39725) | DRSC10294 | – | 91803 | 59227 |
| CG42710 (GeneID 10178945) | DRSC01034 | – | 2.89e5 | 2.85e5 |
| mRpL13 (GeneID 35145) | DRSC02076 | – | 44327 | 46857 |
| kipf (GeneID 40937) | DRSC15446 | – | 74963 | 66427 |
| CG10462 (GeneID 35260) | DRSC02058 | – | 84400 | 70270 |
| CG13995 (GeneID 33851) | DRSC00907 | – | 3.35e5 | 3.09e5 |
| CG13995 (GeneID 33851) | DRSC02327 | – | 22027 | 29403 |
| RpS15Ab + RpS15Aa | DRSC06129 | – | 20647 | 30347 |
| RpS15Ab + RpS15Aa | DRSC19831 | – | 1.49e5 | 1.54e5 |
| ImpE3 (GeneID 48239) | DRSC16716 | – | 52277 | 61160 |
| Mis12 (GeneID 38762) | DRSC10299 | – | 58580 | 61297 |
| Hr83 (GeneID 40783) | DRSC12521 | – | 61567 | 68837 |
| Hsp110 (GeneID 39557) | DRSC11186 | – | 26193 | 27893 |
| CG9147 (GeneID 33855) | DRSC03147 | – | 24397 | 41727 |
| CG6144 (GeneID 34443) | DRSC02934 | – | 2.01e5 | 1.78e5 |
| nopo (GeneID 37083) | DRSC06918 | – | 57027 | 62953 |
| dmrt93B (GeneID 42494) | DRSC15865 | – | 66200 | 59030 |
| CG17085 (retired record) (GeneID 34501) | DRSC02565 | – | 41367 | 90190 |
| CG17085 (retired record) (GeneID 34501) | DRSC02566 | – | 36003 | 70630 |
| eIF2gamma (GeneID 41843) | DRSC13081 | – | 1.04e5 | 1.01e5 |
| eIF2gamma (GeneID 41843) | DRSC16873 | – | 58750 | 29587 |
| HP6 (GeneID 33661) | DRSC00471 | – | 24787 | 27637 |
| ave (GeneID 246638) | DRSC05502 | – | 53053 | 89080 |
| polo (GeneID 40232) | DRSC11384 | at least 3 SD above plate mean (active) | 57420 | 47220 |
| Gbp3 (GeneID 42709) | DRSC15206 | – | 67150 | 78300 |
| CG42449 (GeneID 31486) | DRSC18084 | – | 52790 | 56270 |
| CG6294 + CG6299 | DRSC19980 | – | 3.37e5 | 3.17e5 |
| Madm (GeneID 40710) | DRSC12129 | – | 64153 | 69023 |

Records listed above called active (1):
| gene | amplicon | SD above plate mean | raw ATP luminescence, replicate 1 | raw ATP luminescence, replicate 2 |
| --- | --- | --- | --- | --- |
| polo (GeneID 40232) | DRSC11384 | at least 3 SD above plate mean (active) | 57420 | 47220 |

More records:
| gene | amplicon | SD above plate mean | raw ATP luminescence, replicate 1 | raw ATP luminescence, replicate 2 |
| --- | --- | --- | --- | --- |
| Pez (GeneID 33882) | DRSC03397 | – | 25480 | 22993 |
| meru (GeneID 39727) | DRSC09400 | – | 77430 | 83120 |
| meru (GeneID 39727) | DRSC09899 | – | 71223 | 53807 |
| meru (GeneID 39727) | DRSC10215 | – | 89347 | 64693 |
| Prp18 (GeneID 42285) | DRSC16802 | – | 40883 | 42600 |
| CG13850 (GeneID 42630) | DRSC14700 | – | 40910 | 39330 |
| Topors (GeneID 37188) | DRSC06531 | – | 88167 | 69223 |
| CG7634 (GeneID 40394) | DRSC11843 | – | 70393 | 63280 |
| CG3301 (GeneID 42528) | DRSC15471 | – | 48907 | 33700 |
| CG3376 (GeneID 37884) | DRSC04362 | at least 2 SD above plate mean | 98503 | 88967 |
| CG17177 (GeneID 39601) | DRSC10257 | – | 59830 | 48100 |
| Rh4 (GeneID 39887) | DRSC11268 | – | 44067 | 39450 |
| CG32022 (GeneID 317826) | DRSC09678 | – | 75000 | 83247 |
| ArgRS (GeneID 32539) | DRSC20138 | – | 3.04e5 | 2.39e5 |
| S6k (GeneID 38654) | DRSC11276 | – | 67427 | 86133 |
| CG7387 (GeneID 38915) | DRSC10833 | – | 41590 | 52620 |
| BBS5 (GeneID 40600) | DRSC12168 | – | 70683 | 59500 |
| speck (GeneID 37867) | DRSC04608 | – | 61897 | 58617 |
| CG3603 (GeneID 31289) | DRSC18317 | – | 52060 | 57610 |
| CG13085 (GeneID 35219) | DRSC02189 | – | 56313 | 54010 |
| Chrac-16 (GeneID 32166) | DRSC20343 | – | 2.61e5 | 2.32e5 |
| SP (GeneID 39494) | DRSC09664 | – | 73590 | 75217 |
| qsm (GeneID 47065) | DRSC05896 | – | 1.27e5 | 1.27e5 |
| CG12746 (GeneID 40672) | DRSC12218 | – | 54353 | 27057 |
| Cbp53E (GeneID 36905) | DRSC07356 | – | 69277 | 80107 |
| SMC3 (GeneID 32627) | DRSC20227 | – | 3.08e5 | 2.77e5 |
| bnl (GeneID 42356) | DRSC13377 | – | 1.85e5 | 1.78e5 |
| bnl (GeneID 42356) | DRSC16913 | – | 31417 | 34450 |
| Octbeta2R (GeneID 41549) | DRSC15350 | – | 51747 | 58907 |
| Octbeta2R (GeneID 41549) | DRSC16165 | – | 54907 | 58560 |
| CR11235 (GeneID 10178883) | DRSC20480 | – | 2.67e5 | 2.41e5 |
| Kah (GeneID 38072) | DRSC07887 | – | 1.72e5 | 1.47e5 |
| CG9444 (GeneID 41175) | DRSC16493 | – | 66047 | 61970 |
| unc-13 (GeneID 43841) | DRSC17192 | – | 2.48e5 | 2.40e5 |
| unc-13 (GeneID 43841) | DRSC17193 | – | 2.36e5 | 2.22e5 |
| CG42527 (retired record) + Hr4 | DRSC18495 | – | 60130 | 48450 |
| CG11594 (GeneID 38473) | DRSC08207 | – | 51810 | 37837 |
| CG2256 (GeneID 31727) | DRSC18220 | – | 47590 | 51720 |
| Tailor (GeneID 40847) | DRSC12526 | – | 72280 | 62387 |
| Gclm (GeneID 248194) | DRSC15677 | – | 35507 | 38330 |
| CG42784 (GeneID 326165) | DRSC02534 | – | 1.05e5 | 74037 |
| CG42784 (GeneID 326165) | DRSC02535 | – | 28633 | 34183 |
| Adk2 (GeneID 39479) | DRSC09827 | – | 42177 | 34403 |
| CG18666 (GeneID 50441) | DRSC02694 | – | 26023 | 75753 |
| Rab40 (GeneID 32195) | DRSC19820 | – | 3.37e5 | 3.22e5 |
| Cks85A (GeneID 41034) | DRSC16562 | – | 63580 | 54013 |
| CG9920 (GeneID 41712) | DRSC16578 | – | 83400 | 89520 |
| usp (GeneID 31165) | DRSC18847 | – | 51300 | 37950 |
